According to US10201564B2, “Methods of using inhaled nitric oxide gas for treatment of acute respiratory distress syndrome in children” (Mallinckrodt Hospital Products IP Limited, priority 2014, dated 2019):

What was measured:
[1] = system: patients with moderately severe Acute Lung Injury (ALI); assay: Adult ALI/ARDS study, 5 ppm iNO versus placebo: efficacy and respiratory parameters; assay type: in vivo, human; details: over the length of mechanical ventilation
Experimental: A large-scale, randomized, blinded, placebo-controlled study was carried out in the Intensive Care Units (ICUs) of 46 US hospitals to evaluate the efficacy of low-dose (5 ppm) iNO in 385 patients with moderately severe Acute Lung Injury (ALI). The primary endpoint of this study was number of days alive and off assisted breathing.
Patients had acute lung injury (ALI), defined by a modification of American-European Consensus Conference criteria (PaO2/inspired oxygen concentration [FiO2] ratio of ≤250 mm Hg), due to causes other than severe sepsis. Patients with evidence of non-pulmonary system failure at the time of randomization and sepsis-induced ARDS were excluded. […]
All patients using the iNO delivery system received mechanical ventilatory support. […] Increments of upward titration were determined by the clinician, based on degree of arterial desaturation.
Baseline oxygenation measures included PaO2, arterial partial pressure of CO2 (PaCO2), SpO2, FiO2, PEEP, PaO2/FiO2 ratio, […], tidal volume, and mean airway pressure. Respiratory parameters (FiO2, PEEP, and PaO2/FiO2 ratio) were recorded on case report forms every 12 hours during mechanical ventilation. […]

[2] = system: pediatric subjects with acute hypoxemic respiratory failure (AHRF); assay: Pediatric AHRF study: respiratory values (oxygen status, HFOV, CMV, ABG); assay type: in vivo, human; details: 5 ppm
Experimental: Standardized ventilatory management and weaning procedures were used. Ventilatory management was used based on an “open lung approach” using positive end-expiratory pressure (PEEP) to increase lung volume and limiting tidal volumes to reduce plateau pressures. Subjects received nitric oxide for inhalation at 5 ppm or placebo (100% Grade 5 nitrogen gas) into the inspiratory limb of the ventilator circuit using a blinded version of the INOvent® delivery system. The subjects were treated until Day 28 or extubation, whichever occurred first. Subjects were assessed daily using a spontaneous breathing trial, according to the institution's standard of care. Arterial blood gases (ABG), ventilator settings, methemoglobin, oxygenation index, systolic blood pressure, diastolic blood pressure, Pediatric Risk of Mortality (PRISM) III score, and subject positioning (prone or supine) were performed/recorded at specified times during the study. Selected centers also performed plasma cytokine assays, bronchoalveolar lavage fluid (BALF) assays, and a 6-month follow-up assessment.
The following assessments were made at baseline: arterial blood gases, ventilator settings, methemoglobin, prone position, PRISM III score, oxygenation index, systolic and diastolic blood pressure, bronchoalveolar lavage fluid assay and plasma cytokine.
The following assessments were made at 4 hours±1 hour after the start of therapy: arterial blood gases, ventilator settings and methemoglobin.
The following assessments were made at 12 hours±2 hours after the start of therapy: arterial blood gases and ventilator settings.
The following assessments were made at 24 hours±2 hours after the start of therapy: arterial blood gases, ventilator settings, methemoglobin, systolic and diastolic blood pressure and plasma cytokine.
Oxygen status was determined at screening only. Respiratory values in the HFOV category were obtained at baseline, 4 hours, 12 hours, and 24 hours. Respiratory values in the categories conventional mechanical ventilation [CMV] and ABG were obtained at baseline, 4 hours, 12 hours, 24 hours, and at extubation.

SMILES: [N]=O [Nitric Oxide, nitric oxide]
- cumulative exposure to FiO2, PEEP and PaO2/FiO2 ratio versus placebo [1]: less cumulative exposure
- CMV FiO2, Mean (SD) ([2]; 4 Hours): 63.9 (20.0) %
- CMV FiO2, Median ([2]; 4 Hours): 60.0%
- CMV Inspiratory Time, Mean (SD) ([2]; 4 Hours): 0.8 (0.2) s
- CMV Inspiratory Time, Median ([2]; 4 Hours): 0.8 s
- CMV MAP, Mean (SD) ([2]; 4 Hours): 17.0 (3.5) cmH2O
- CMV MAP, Median ([2]; 4 Hours): 17.5 cmH2O
- CMV PEEP, Mean (SD) ([2]; 4 Hours): 10.7 (3.2) cmH2O
- CMV PEEP, Median ([2]; 4 Hours): 10.5 cmH2O
- CMV Pplat, Mean (SD) ([2]; 4 Hours): 29.0 (2.0) cmH2O
- CMV Pplat, Median ([2]; 4 Hours): 29.0 cmH2O
- CMV Rate, Mean (SD) ([2]; 4 Hours): 25.5 (5.9) /min
- CMV Rate, Median ([2]; 4 Hours): 27.0 min⁻¹
- CMV Set Vt, Mean (SD) ([2]; 4 Hours): 131.3 (82.9) mL
- CMV Set Vt, Median ([2]; 4 Hours): 110.0 mL
- HFOV FiO2, Mean (SD) ([2]; 4 Hours): 52.9 (27.3) %
- HFOV FiO2, Median ([2]; 4 Hours): 40.0%
- HFOV Hertz, Mean (SD) ([2]; 4 Hours): 7.4 (1.9) min
- HFOV Hertz, Median ([2]; 4 Hours): 7.0 min
- HFOV Inspiratory Time, Mean (SD) ([2]; 4 Hours): 5.0 (12.4) s
- HFOV Inspiratory Time, Median ([2]; 4 Hours): 0.3 s
- HFOV MAP, Mean (SD) ([2]; 4 Hours): 26.6 (4.7) cmH2O
- HFOV MAP, Median ([2]; 4 Hours): 25.0 cmH2O
- HFOV delta P, Mean (SD) ([2]; 4 Hours): 48.0 (15.5) cmH2O
- HFOV delta P, Median ([2]; 4 Hours): 45.5 cmH2O
- CMV FiO2, Mean (SD) ([2]; 12 Hours): 59.0 (18.9) %
- CMV FiO2, Median ([2]; 12 Hours): 55.0%
- CMV Inspiratory Time, Mean (SD) ([2]; 12 Hours): 0.8 (0.2) s
- CMV Inspiratory Time, Median ([2]; 12 Hours): 0.8 s
- CMV MAP, Mean (SD) ([2]; 12 Hours): 16.7 (3.8) cmH2O
- CMV MAP, Median ([2]; 12 Hours): 18.0 cmH2O
- CMV PEEP, Mean (SD) ([2]; 12 Hours): 10.6 (3.2) cmH2O
- CMV PEEP, Median ([2]; 12 Hours): 10.0 cmH2O
- CMV Pplat, Mean (SD) ([2]; 12 Hours): 25.8 (6.7) cmH2O
- CMV Pplat, Median ([2]; 12 Hours): 28.0 cmH2O
- CMV Rate, Mean (SD) ([2]; 12 Hours): 24.5 (5.7) /min
- CMV Rate, Median ([2]; 12 Hours): 25.0 min⁻¹
- CMV Set Vt, Mean (SD) ([2]; 12 Hours): 126.5 (89.2) mL
- CMV Set Vt, Median ([2]; 12 Hours): 100.0 mL
- HFOV FiO2, Mean (SD) ([2]; 12 Hours): 43.8 (16.0) %
- HFOV FiO2, Median ([2]; 12 Hours): 42.5%
- HFOV Hertz, Mean (SD) ([2]; 12 Hours): 7.9 (1.6) min
- HFOV Hertz, Median ([2]; 12 Hours): 7.5 min
- HFOV Inspiratory Time, Mean (SD) ([2]; 12 Hours): 4.4 (11.6) s
- HFOV Inspiratory Time, Median ([2]; 12 Hours): 0.3 s
- HFOV MAP, Mean (SD) ([2]; 12 Hours): 25.5 (5.2) cmH2O
- HFOV MAP, Median ([2]; 12 Hours): 23.9 cmH2O
- HFOV delta P, Mean (SD) ([2]; 12 Hours): 46.1 (14.3) cmH2O
- HFOV delta P, Median ([2]; 12 Hours): 36.0 cmH2O
- CMV FiO2, Mean (SD) ([2]; 24 Hours): 58.1 (16.6) %
- CMV FiO2, Median ([2]; 24 Hours): 55.0%
- CMV Inspiratory Time, Mean (SD) ([2]; 24 Hours): 0.8 (0.2) s
- CMV Inspiratory Time, Median ([2]; 24 Hours): 0.8 s
- CMV MAP, Mean (SD) ([2]; 24 Hours): 16.0 (3.9) cmH2O
- CMV MAP, Median ([2]; 24 Hours): 15.5 cmH2O
- CMV PEEP, Mean (SD) ([2]; 24 Hours): 9.8 (2.9) cmH2O
- CMV PEEP, Median ([2]; 24 Hours): 10.0 cmH2O
- CMV Pplat, Mean (SD) ([2]; 24 Hours): 30.0 (4.6) cmH2O
- CMV Pplat, Median ([2]; 24 Hours): 29.0 cmH2O
- CMV Rate, Mean (SD) ([2]; 24 Hours): 25.0 (6.6) /min
- CMV Rate, Median ([2]; 24 Hours): 25.5 min⁻¹
- CMV Set Vt, Mean (SD) ([2]; 24 Hours): 123.3 (86.4) mL
- CMV Set Vt, Median ([2]; 24 Hours): 100.0 mL
- HFOV FiO2, Mean (SD) ([2]; 24 Hours): 44.0 (20.4) %
- HFOV FiO2, Median ([2]; 24 Hours): 35.0%
- HFOV Hertz, Mean (SD) ([2]; 24 Hours): 8.3 (1.9) min
- HFOV Hertz, Median ([2]; 24 Hours): 8.0 min
- HFOV Inspiratory Time, Mean (SD) ([2]; 24 Hours): 6.8 (14.6) s
- HFOV Inspiratory Time, Median ([2]; 24 Hours): 0.3 s
- HFOV MAP, Mean (SD) ([2]; 24 Hours): 25.2 (4.2) cmH2O
- HFOV MAP, Median ([2]; 24 Hours): 24.0 cmH2O
- HFOV delta P, Mean (SD) ([2]; 24 Hours): 41.3 (12.2) cmH2O
- HFOV delta P, Median ([2]; 24 Hours): 38.5 cmH2O
- CMV FiO2, Mean (SD) ([2]; Extubation Criteria): 38.1 (12.5) %
- CMV FiO2, Median ([2]; Extubation Criteria): 40.0%
- CMV Inspiratory Time, Mean (SD) ([2]; Extubation Criteria): 0.8 (0.1) s
- CMV Inspiratory Time, Median ([2]; Extubation Criteria): 0.8 s
- CMV MAP, Mean (SD) ([2]; Extubation Criteria): 10.2 (2.3) cmH2O
- CMV MAP, Median ([2]; Extubation Criteria): 10.0 cmH2O
- CMV PEEP, Mean (SD) ([2]; Extubation Criteria): 5.8 (0.7) cmH2O
- CMV PEEP, Median ([2]; Extubation Criteria): 6.0 cmH2O
- CMV Pplat, Mean (SD) ([2]; Extubation Criteria): 21.0 (6.2) cmH2O
- CMV Pplat, Median ([2]; Extubation Criteria): 19.0 cmH2O
- CMV Rate, Mean (SD) ([2]; Extubation Criteria): 16.3 (7.9) /min
- CMV Rate, Median ([2]; Extubation Criteria): 15.5 min⁻¹
- CMV Set Vt, Mean (SD) ([2]; Extubation Criteria): 106.9 (33.6) mL
- CMV Set Vt, Median ([2]; Extubation Criteria): 109.5 mL
